Test results: paper PMC5154354
These are yes or no findings as the source states them, for the method shown. Binding seen in cells or lysates may run through a third protein. Some binding calls cover weakened binding; strength is not graded here.

Protein sequences, listed by entry. Tags and fused reporters are not part of them. Residues count along the entry.
UniProt P10809, residues 27-573: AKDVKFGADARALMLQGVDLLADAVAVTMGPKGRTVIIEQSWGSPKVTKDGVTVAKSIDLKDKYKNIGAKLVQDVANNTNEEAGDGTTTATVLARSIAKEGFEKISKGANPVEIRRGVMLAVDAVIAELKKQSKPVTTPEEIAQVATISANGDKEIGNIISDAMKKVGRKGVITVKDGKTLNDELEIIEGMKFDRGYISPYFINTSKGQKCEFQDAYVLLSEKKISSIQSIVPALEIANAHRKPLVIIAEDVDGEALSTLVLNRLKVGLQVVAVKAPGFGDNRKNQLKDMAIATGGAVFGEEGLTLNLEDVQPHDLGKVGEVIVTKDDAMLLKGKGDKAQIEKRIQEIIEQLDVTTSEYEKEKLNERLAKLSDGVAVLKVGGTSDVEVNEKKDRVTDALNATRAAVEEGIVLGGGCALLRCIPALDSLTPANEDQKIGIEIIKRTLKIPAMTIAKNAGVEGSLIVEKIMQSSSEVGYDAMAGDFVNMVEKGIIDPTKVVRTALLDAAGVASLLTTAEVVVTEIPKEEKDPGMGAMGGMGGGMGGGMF

Key:
[1] = target: T1, Biotin-P17 (synthetic peptide P17, 39 residues, N-terminally biotinylated); experiment: pull-down; 'P17/P17S+beads': P17- or P17S-conjugated streptavidin magnetic beads incubated with precleared RIFA lysate of TRAIL-treated Jurkat cells; binding buffer 0.5 M NaCl, 20 mM Tris-HCl, 1 mM EDTA, pH 7.5, on ice 4 h; western blot for HSP60 and Coomassie staining; only the target purified
T1 sequence (peptide, biotin on the N-terminus): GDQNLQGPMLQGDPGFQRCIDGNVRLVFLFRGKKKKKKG

[2] = target: T2, Biotin-P17S (scrambled P17, N-terminally biotinylated); experiment: as above
T2 sequence (peptide, biotin on the N-terminus): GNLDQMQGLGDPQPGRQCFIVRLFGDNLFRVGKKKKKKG

[3] = target: T1, Biotin-P17 (synthetic peptide P17, 39 residues, N-terminally biotinylated); experiment: pull-down; 'pre-P17/P17S+beads': TRAIL-treated Jurkat cells pre-incubated with biotin-P17 or P17S (10 uM, 30 min, 37 C), washed, lysed in RIFA buffer; complex caught with streptavidin magnetic beads in binding buffer (0.5 M NaCl, 20 mM Tris-HCl, 1 mM EDTA, pH 7.5) on ice 4 h; western blot for HSP60 and Coomassie staining; only the target purified
[4] = target: T2, Biotin-P17S (scrambled P17, N-terminally biotinylated); experiment: as above

## heat shock protein 60 (HSP60) (from UniProt P10809 27-573)
[1]
  binding: binds
[2]
  binding: no binding
[3]
  binding: binds
[4]
  binding: no binding (tested: 10 uM)
